Data reported in patent publication US20110293518A1 (GE HEALTHCARE LIMITED, priority 2005, published 2011).

Assay: PET with DDE in inflamed joints (rheumatoid arthritis patients)
Settings: patients with rheumatoid arthritis given the tracer

With `C#CCN([11CH3])[C@@H](C)Cc1ccccc1` [DDE, D-[methyl-^11C]-deprenyl] the “radioactivity concentration in synovial fluid” value was “low radioactivity”.
